Data published in article PMC5886296.

Molecular target: T1, DNAAF1 fused to the GAL4 DNA-binding domain (pBD-DNAAF1) (human) (UniProt Q8NEP3)
T1 sequence: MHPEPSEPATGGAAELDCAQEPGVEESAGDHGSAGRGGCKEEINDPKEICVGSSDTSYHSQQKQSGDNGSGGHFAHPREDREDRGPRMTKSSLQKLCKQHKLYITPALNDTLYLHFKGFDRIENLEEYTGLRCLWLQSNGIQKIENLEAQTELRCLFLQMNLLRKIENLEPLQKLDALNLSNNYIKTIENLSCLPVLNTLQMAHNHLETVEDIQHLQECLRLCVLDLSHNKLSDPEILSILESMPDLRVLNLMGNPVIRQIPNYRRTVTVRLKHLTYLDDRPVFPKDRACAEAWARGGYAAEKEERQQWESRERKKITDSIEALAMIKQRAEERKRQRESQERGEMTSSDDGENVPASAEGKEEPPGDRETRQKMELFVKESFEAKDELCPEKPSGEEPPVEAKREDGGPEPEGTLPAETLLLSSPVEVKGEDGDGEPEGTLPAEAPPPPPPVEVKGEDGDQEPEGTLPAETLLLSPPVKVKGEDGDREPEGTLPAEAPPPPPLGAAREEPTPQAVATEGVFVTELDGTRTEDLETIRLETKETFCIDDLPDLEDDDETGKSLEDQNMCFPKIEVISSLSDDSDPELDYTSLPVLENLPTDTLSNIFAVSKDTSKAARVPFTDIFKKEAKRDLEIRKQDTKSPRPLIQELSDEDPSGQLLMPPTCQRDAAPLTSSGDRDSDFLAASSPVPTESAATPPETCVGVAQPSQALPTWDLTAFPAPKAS
Assay: two-hybrid; dedicated one-to-one yeast two-hybrid; DNAAF1-BD against full-length and truncated IFT88

| binding | Substance |
| --- | --- |
| no binding | C-terminal truncated IFT88 (1–449) (from UniProt Q13099-2) (domain or fragment) |
| binds | N-terminally truncated IFT88 (442–833) (domain or fragment) |

No constants are given. Whether binding was seen depends on the method and setting. A result given as binding can be weak or reduced; the word gives no strength. Where a sequence is shown, tags or fusion partners need not be part of it.
